The list shows only some results of the screen, not a fair sample: it gathers tests that were run many times, whatever their T/C, doses with no T/C, and many T/C values between a quarter and a half above the control. Further doses and runs are listed elsewhere. T/C is the treated group as % of the vehicle group. Some entries give survivors of the animals treated and no T/C: the source holds a T/C of zero for them, seemingly a mark for toxic or unscored doses. Some survivor counts are full or nearly so, which does not show that the dose was tolerated: survival well below the control is almost never listed, so the zero probably covers shortened survival too. Counts of survivors are from the toxicity check (mostly the fifth day) where no day follows; animals may have died later. Schedules are NCI's codes, taken here to give the interval after Q, in days (D) or hours (H), and the number of doses after X. Some entries were tested several times; the results are listed from low to high. Counts like (3×) say how often a value occurs here. For survival time, the PubChem record calls one and a half times the control and up active, and a quarter to a half above the control has no call in these data; cut-offs in other NCI protocols can differ. Some T/C values are followed by the survivors on the day toxicity was checked, most often the fifth; without a count, all were alive then.
Test system: P388 leukemia ip, CD2F1 mice, survival T/C
Test: NCI In Vivo Anticancer Drug Screen. Data for tumor model P388 Leukemia (intraperitoneal) in CD2F1 (CDF1) mice
Conditions: T/C endpoint: median survival time, higher T/C = longer survival
[1] = dose: 100.0 mg/kg/injection, schedule: Q01DX001 (ip), vehicle: Klucel (hydroxypropylcellulose) (HPC)
[2] = dose: 200.0 mg/kg/injection, schedule: Q01DX001 (ip), vehicle: Klucel (hydroxypropylcellulose) (HPC)
[3] = dose: 400.0 mg/kg/injection, schedule: Q01DX001 (ip), vehicle: Klucel (hydroxypropylcellulose) (HPC)

CC(CN1CC(=O)NC(=O)C1)N1CC(=O)NC(=O)C1 (stereo not given)
T/C (dose: 75.0 mg/kg/injection, schedule: Q04DX003 (ip), vehicle: Klucel (hydroxypropylcellulose) (HPC)): 104, 106, 111, 118 (2×), 122, 123 (2×), 124, 125 (4×), 126 (2×), 127 (2×), 128 (3×), 129 (3×), 131, 132 (2×), 133, 134, 137 (2×), 140, 141, 145, 149 % of control | T/C [1]: 96, 103 [5 of 6 alive], 107, 110, 111, 112 (5×), 113 (3×), 114 (2×), 115 (2×), 116 (2×), 119 (3×), 121 (2×), 123, 125, 127, 130 (2×), 131 % of control (2×) | survivor count [1]: 6 of 6 | T/C (dose: 100.0 mg/kg/injection, schedule: Q01DX005 (ip), vehicle: Klucel (hydroxypropylcellulose) (HPC), evaluated on day 30): 87, 90, 114, 119, 123, 148, 157 (2×), 164, 165, 166 (2×), 168, 169, 172, 173 [5 of 6 alive], 174 (3×), 176 (2×), 177 (2×), 179 (2×), 182 (2×), 183, 199, 201, 208 % of control | T/C (dose: 100.0 mg/kg/injection, schedule: Q01DX005 (ip), vehicle: Klucel (hydroxypropylcellulose) (HPC), evaluated on day 35): 200 % of control | survivor count (dose: 100.0 mg/kg/injection, schedule: Q01DX005 (ip), vehicle: Klucel (hydroxypropylcellulose) (HPC)): 3 of 3 | T/C (dose: 100.0 mg/kg/injection, schedule: Q01DX009 (ip), vehicle: Klucel (hydroxypropylcellulose) (HPC), evaluated on day 30): 86, 88, 90, 93, 94, 95, 100 (2×), 102, 104 (2×), 107, 112, 120, 121, 132, 133, 141, 180 [5 of 6 alive], 182, 186, 193, 196, 215, 220, 229, 238 % of control | T/C (dose: 100.0 mg/kg/injection, schedule: Q01DX009 (ip), vehicle: Klucel (hydroxypropylcellulose) (HPC), evaluated on day 35): 93 % of control | survivor count (dose: 100.0 mg/kg/injection, schedule: Q01DX009 (ip), vehicle: Klucel (hydroxypropylcellulose) (HPC)): 2 of 3, 5 of 6, 3 of 3 (2×), 6 of 6 | T/C (dose: 100.0 mg/kg/injection, schedule: Q04DX002 (ip), vehicle: Klucel (hydroxypropylcellulose) (HPC)): 127 and 137 % of control | T/C (dose: 108.0 mg/kg/injection, schedule: Q04DX002 (ip), vehicle: saline): 140 % of control | T/C (dose: 108.0 mg/kg/injection, schedule: Q04DX003 (ip), vehicle: saline): 132 and 133 % of control | T/C (dose: 130.0 mg/kg/injection, schedule: Q04DX002 (ip), vehicle: saline with Tween-80): 134 % of control | T/C (dose: 150.0 mg/kg/injection, schedule: Q04DX002 (ip), vehicle: Klucel (hydroxypropylcellulose) (HPC), evaluated on day 30): 108, 112, 117, 120, 122, 123, 124, 125, 126 (3×), 128, 130, 135 (2×), 136 (2×), 137 (2×), 140, 143, 144 (2×), 147, 152, 154, 155, 157, 159, 160, 175 % of control | T/C (dose: 150.0 mg/kg/injection, schedule: Q04DX002 (ip), vehicle: Klucel (hydroxypropylcellulose) (HPC), evaluated on day 35): 119, 122, 131 % of control | survivor count (dose: 150.0 mg/kg/injection, schedule: Q04DX002 (ip), vehicle: Klucel (hydroxypropylcellulose) (HPC)): 3 of 3 and 6 of 6 | T/C (dose: 150.0 mg/kg/injection, schedule: Q04DX003 (ip), vehicle: Klucel (hydroxypropylcellulose) (HPC)): 116, 117, 118, 123, 125, 126, 131, 133, 134, 135, 136 [5 of 6 alive], 137, 139, 142 (2×), 143, 144 (3×), 145 (2×), 146 (2×), 147, 149, 150, 151, 152, 156 (2×), 158, 163, 165, 171 % of control | T/C [2]: 108, 109, 110, 112, 118 (3×), 119, 120, 121 (2×), 122 (3×), 123 (2×), 125, 126 (2×), 127, 128 (2×), 130, 131, 134 (2×), 137 (2×), 140, 162, 172 % of control | survivor count [2]: 6 of 6 | T/C (dose: 300.0 mg/kg/injection, schedule: Q04DX002 (ip), vehicle: Klucel (hydroxypropylcellulose) (HPC), evaluated on day 30): 101, 115, 133 (2×), 135, 139, 147, 148, 152, 154, 162, 165 (2×), 166, 169, 176, 179, 181, 182 (2×), 188, 197, 200 (2×), 201 (2×), 203, 204, 206, 212, 223 % of control | T/C (dose: 300.0 mg/kg/injection, schedule: Q04DX002 (ip), vehicle: Klucel (hydroxypropylcellulose) (HPC), evaluated on day 35): 139, 186, 203 % of control | survivor count (dose: 300.0 mg/kg/injection, schedule: Q04DX002 (ip), vehicle: Klucel (hydroxypropylcellulose) (HPC)): 5 of 6 and 3 of 3 | T/C (dose: 300.0 mg/kg/injection, schedule: Q04DX003 (ip), vehicle: Klucel (hydroxypropylcellulose) (HPC)): 110, 128, 131, 140, 144 [5 of 6 alive], 145 [4 of 6 alive], 154, 155, 158 (2×), 159, 163 (2×), 174, 181, 182 (2×), 186, 192, 194, 195 (3×), 205, 209 (2×), 213, 215, 216, 226 (2×), 229, 240, 254 % of control | T/C [3]: 96, 105 [2 of 3 alive], 110, 112 (2×), 126, 131, 132, 137 (3×), 138, 140, 142, 145, 150 (2×), 153, 155, 156, 156 [4 of 6 alive], 156 [5 of 6 alive], 160 (2×), 162, 175, 177, 190 % of control (2×) | survivor count [3]: 5 of 6, 3 of 3, 6 of 6

Source: PubChem BioAssay AID330 (DTP/NCI, 2004)
